# PubChem BioAssay AID1159578, Peter MacCallum Cancer Centre | 2015
# Purpose: 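siRNA pools altering how lymphatic endothelial cells close a scratch wound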 (primary screen)
# System: human lymphatic endothelial cells
# Knock-down reagent: siRNA pool against human genes, 40 nM
# Time to read-out: 48 h after transfection
# Measured: 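Cells stained with dye and imaged after a scratch; covered wound area and nuclei counted, duplicates averaged, migration set against mock wells and turned into a robust z-score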
# Direction: migration robust z-score: higher = faster migration into the scratch; migration relative to mock: higher = more scratch area covered than mock; nuclei per well: higher = more cells in the well
# Hit rule: 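Pools averaging fewer than 3300 nuclei are never called; remaining pools count as changed when migration robust z lies outside -2 to 2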
# Calls: active = migration changed; inactive = no migration change, or too few cells
# In all, the deposit lists about 18,000 reagents; below is an unselected part. About 1,030 of all reagents (5.7%) count as active. 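Inactive calls also include pools with fewer than 3300 nuclei, whose migration was not assessed.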 Raw values are not corrected between plates. Reagents against one gene are numbered here. Reagent sequences are not shown.
gene symbol,pool no.,migration robust z-score,migration class with cell-count check,migration relative to mock,"nuclei per well, duplicate mean",Outcome
UTP14C (UTP14C small subunit processome component),1,-0.5,migration z between -2 and 2; enough cells,0.75,5634,inactive
C22orf39 (chromosome 22 open reading frame 39),1,-1.88,migration z between -2 and 2; enough cells,0.4,4238,inactive
IL13RA1 (interleukin 13 receptor subunit alpha 1),1,-0.02,migration z between -2 and 2; enough cells,0.8,5272,inactive
OR11G2 (olfactory receptor family 11 subfamily G member 2),1,-0.18,migration z between -2 and 2; enough cells,0.84,5399,inactive
DEFB124 (defensin beta 124),1,-3.33,migration z below -2; enough cells,0.02,5482,active
ERAP1 (endoplasmic reticulum aminopeptidase 1),1,0.94,migration z between -2 and 2; enough cells,0.98,5846,inactive
PNRC2 (proline rich nuclear receptor coactivator 2),1,0.84,migration z between -2 and 2; enough cells,1.1,6248,inactive
CCDC88A (coiled-coil and HOOK domain protein 88A),1,1,migration z between -2 and 2; enough cells,1.15,5228,inactive
BMP8A (bone morphogenetic protein 8a),1,1.27,migration z between -2 and 2; enough cells,1.21,6659,inactive
DERL1 (derlin 1),1,2.43,migration z above 2; enough cells,1.52,6732,active
HMCN2 (hemicentin 2),1,0.66,migration z between -2 and 2; enough cells,1.06,5742,inactive
YIPF7 (Yip1 domain family member 7),1,-1.49,migration z between -2 and 2; enough cells,0.5,6448,inactive
RSL24D1 (ribosomal L24 domain containing 1),1,-0.12,migration z between -2 and 2; enough cells,0.86,4288,inactive
GABARAPL2 (GABA type A receptor associated protein like 2),1,0.22,migration z between -2 and 2; enough cells,0.94,6292,inactive
WAPL (WAPL cohesin release factor),1,-0.67,migration z between -2 and 2; enough cells,0.71,5770,inactive
"PCDHGA9 (protocadherin gamma subfamily A, 9)",1,-0.74,migration z between -2 and 2; enough cells,0.69,4806,inactive
ZGRF1 (zinc finger GRF-type containing 1),1,0.26,migration z between -2 and 2; enough cells,0.95,5434,inactive
ZGRF1 (zinc finger GRF-type containing 1),2,-0.8,migration z between -2 and 2; enough cells,0.68,5690,inactive
SLC9B1,1,-0.5,migration z between -2 and 2; enough cells,0.76,7220,inactive
SLC6A1,1,0.7,migration z between -2 and 2; enough cells,0.94,5973,inactive
ANTKMT (adenine nucleotide translocase lysine methyltransferase),1,-1.41,migration z between -2 and 2; enough cells,0.52,4470,inactive
ZNF827 (zinc finger protein 827),1,1.02,migration z between -2 and 2; enough cells,1.16,7383,inactive
KTI12 (KTI12 chromatin associated homolog),1,-0.86,migration z between -2 and 2; enough cells,0.66,5367,inactive
"FBXL21P (F-box and leucine rich repeat protein 21, pseudogene)",1,-1.02,migration z between -2 and 2; enough cells,0.61,5837,inactive
ENPP1 (ectonucleotide pyrophosphatase/phosphodiesterase 1),1,0.88,migration z between -2 and 2; enough cells,0.98,6429,inactive
CLLU1-AS1 (CLLU1 antisense RNA 1),1,-0.58,migration z between -2 and 2; enough cells,0.74,5795,inactive

Next part (7 carried over from the part before).
gene symbol,pool no.,migration robust z-score,migration class with cell-count check,migration relative to mock,"nuclei per well, duplicate mean",Outcome
SLC6A1,1,0.7,migration z between -2 and 2; enough cells,0.94,5973,inactive
ANTKMT (adenine nucleotide translocase lysine methyltransferase),1,-1.41,migration z between -2 and 2; enough cells,0.52,4470,inactive
ZNF827 (zinc finger protein 827),1,1.02,migration z between -2 and 2; enough cells,1.16,7383,inactive
KTI12 (KTI12 chromatin associated homolog),1,-0.86,migration z between -2 and 2; enough cells,0.66,5367,inactive
"FBXL21P (F-box and leucine rich repeat protein 21, pseudogene)",1,-1.02,migration z between -2 and 2; enough cells,0.61,5837,inactive
ENPP1 (ectonucleotide pyrophosphatase/phosphodiesterase 1),1,0.88,migration z between -2 and 2; enough cells,0.98,6429,inactive
CLLU1-AS1 (CLLU1 antisense RNA 1),1,-0.58,migration z between -2 and 2; enough cells,0.74,5795,inactive
"IZUMO1R (IZUMO1 receptor, JUNO)",1,-0.72,migration z between -2 and 2; enough cells,0.7,4451,inactive
GATA4 (GATA binding protein 4),1,0.03,migration z between -2 and 2; enough cells,0.81,5507,inactive
SCN7A (sodium voltage-gated channel alpha subunit 7),1,-0.46,migration z between -2 and 2; enough cells,0.72,7066,inactive
"TEFM (transcription elongation factor, mitochondrial)",1,0.28,migration z between -2 and 2; enough cells,0.96,6212,inactive
DUS2 (dihydrouridine synthase 2),1,0.86,migration z between -2 and 2; enough cells,1.11,6006,inactive
PACRG (parkin coregulated),1,2.2,migration z above 2; enough cells,1.46,5240,active
INPP1 (inositol polyphosphate-1-phosphatase),1,0.24,migration z between -2 and 2; enough cells,0.85,5619,inactive
PDZD9 (PDZ domain containing 9),1,2.33,migration z above 2; enough cells,1.49,5353,active
TCEAL1 (transcription elongation factor A like 1),1,0.75,migration z between -2 and 2; enough cells,0.95,4634,inactive
STK32C (serine/threonine kinase 32C),1,-0.36,migration z between -2 and 2; enough cells,0.74,3506,inactive
AAAS (aladin WD repeat nucleoporin),1,0.25,migration z between -2 and 2; enough cells,0.94,5045,inactive
LRRN1 (leucine rich repeat neuronal 1),1,0.64,migration z between -2 and 2; enough cells,1.05,6424,inactive
TUBB (tubulin beta class I),1,0.8,migration z between -2 and 2; enough cells,1.09,4857,inactive
LRRC37A2 (leucine rich repeat containing 37 member A2),1,-0.25,migration z between -2 and 2; enough cells,0.82,7002,inactive
MAD2L2 (mitotic arrest deficient 2 like 2),1,-1.3,migration z between -2 and 2; enough cells,0.56,4362,inactive
PGC (progastricsin),1,-1.3,migration z between -2 and 2; enough cells,0.56,5384,inactive
MT1M (metallothionein 1M),1,-0.81,migration z between -2 and 2; enough cells,0.68,5166,inactive
MARK4 (microtubule affinity regulating kinase 4),1,-0.57,migration z between -2 and 2; enough cells,0.7,3936,inactive
BRCC3 (BRCA1/BRCA2-containing complex subunit 3),1,-0.34,migration z between -2 and 2; enough cells,0.8,5539,inactive
KCNQ2 (potassium voltage-gated channel subfamily Q member 2),1,-2.29,migration z below -2; enough cells,0.36,3958,active
TNIK (TRAF2 and NCK interacting kinase),1,-0.52,migration z between -2 and 2; enough cells,0.7,3611,inactive
QPCT (glutaminyl-peptide cyclotransferase),1,0.83,migration z between -2 and 2; enough cells,0.96,7988,inactive
"PIKFYVE (phosphoinositide kinase, FYVE-type zinc finger containing)",1,-0.16,migration z between -2 and 2; enough cells,0.78,6284,inactive
SKIL (SKI like proto-oncogene),1,1.5,migration z between -2 and 2; enough cells,1.1,5479,inactive
RREB1 (ras responsive element binding protein 1),1,0.13,migration z between -2 and 2; enough cells,0.83,4673,inactive
OR1K1 (olfactory receptor family 1 subfamily K member 1),1,0.94,migration z between -2 and 2; enough cells,1.12,5014,inactive
SELENOM (selenoprotein M),1,-0.52,migration z between -2 and 2; enough cells,0.75,5898,inactive
ARRDC1-AS1 (ARRDC1 antisense RNA 1),1,1.6,migration z between -2 and 2; enough cells,1.3,6784,inactive
TRERF1 (transcriptional regulating factor 1),1,-1.35,migration z between -2 and 2; enough cells,0.54,5394,inactive
DEF8 (differentially expressed in FDCP 8 homolog),1,-0.44,migration z between -2 and 2; enough cells,0.77,5890,inactive
SLC17A7,1,0.34,migration z between -2 and 2; enough cells,0.87,3940,inactive
